Results from publication PMC8155495.
Results are given in words; binding and its absence hold for the method and conditions named. Binding seen in cells or lysates may run through a third protein. Some binding calls cover weakened binding; strength is not graded here. For some assays here: Tags and fused reporters may be left off the sequences shown.

By UniProt entry, the sequences of proteins in these tests, tags left out.
UniProt P52945: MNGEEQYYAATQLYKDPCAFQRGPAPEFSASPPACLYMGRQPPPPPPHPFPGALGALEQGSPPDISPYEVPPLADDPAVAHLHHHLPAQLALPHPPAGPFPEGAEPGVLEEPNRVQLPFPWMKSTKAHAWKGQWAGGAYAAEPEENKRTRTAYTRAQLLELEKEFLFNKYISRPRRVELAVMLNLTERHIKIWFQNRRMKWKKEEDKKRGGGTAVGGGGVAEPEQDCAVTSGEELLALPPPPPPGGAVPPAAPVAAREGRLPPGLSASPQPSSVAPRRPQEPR
UniProt Q969H0: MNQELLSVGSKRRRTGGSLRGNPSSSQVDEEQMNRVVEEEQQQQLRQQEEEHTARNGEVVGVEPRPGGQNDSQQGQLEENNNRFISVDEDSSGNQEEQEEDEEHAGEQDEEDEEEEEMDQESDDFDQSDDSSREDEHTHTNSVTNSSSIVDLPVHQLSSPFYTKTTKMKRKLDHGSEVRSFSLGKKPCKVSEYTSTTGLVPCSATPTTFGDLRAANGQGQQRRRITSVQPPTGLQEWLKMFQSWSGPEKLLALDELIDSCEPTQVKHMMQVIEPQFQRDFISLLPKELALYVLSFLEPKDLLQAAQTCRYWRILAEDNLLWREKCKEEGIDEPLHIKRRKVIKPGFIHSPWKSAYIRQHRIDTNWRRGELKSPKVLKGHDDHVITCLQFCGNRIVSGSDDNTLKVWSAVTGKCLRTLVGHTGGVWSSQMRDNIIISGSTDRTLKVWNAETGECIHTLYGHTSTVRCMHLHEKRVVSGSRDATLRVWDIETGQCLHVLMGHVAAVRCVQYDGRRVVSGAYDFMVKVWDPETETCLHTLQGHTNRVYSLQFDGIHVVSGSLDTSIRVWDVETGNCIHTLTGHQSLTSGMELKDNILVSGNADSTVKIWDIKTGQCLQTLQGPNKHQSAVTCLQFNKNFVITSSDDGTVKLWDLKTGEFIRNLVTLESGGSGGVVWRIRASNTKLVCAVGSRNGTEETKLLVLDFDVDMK

T1: Flag-NGN3 (Neurogenin 3) (UniProt Q9Y4Z2)
T1 sequence: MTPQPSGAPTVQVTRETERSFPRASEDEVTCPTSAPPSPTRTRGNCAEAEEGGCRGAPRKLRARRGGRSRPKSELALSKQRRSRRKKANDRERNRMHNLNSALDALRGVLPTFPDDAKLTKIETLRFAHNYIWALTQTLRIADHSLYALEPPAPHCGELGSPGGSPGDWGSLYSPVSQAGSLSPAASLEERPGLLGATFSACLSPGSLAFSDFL


Legend:
Flag-NGN3 (Neurogenin 3) = target: T1, Flag-NGN3 (Neurogenin 3); assay: co-IP; HEK293T cells cotransfected with Flag-NGN3, Myc-FBW7 and HA-Ub, treated with 0 or 10 uM MG132; lysate immunoprecipitated with anti-Flag antibodies, western blotting
[1] = target: pancreatic-duodenal homeobox factor 1 (PDX1), endogenous (human (endogenous in human beta cells and i-Beta cells)) (UniProt P52945); assay: co-IP; immunoprecipitation with an anti-PDX1 antibody from i-Beta cells and human beta cells, western blotting for NGN3

Molecule	binding (Flag-NGN3 (Neurogenin 3))	binding [1]
Myc-FBW7 (from UniProt Q969H0 1-707)	binds	
NGN3 (Neurogenin 3), endogenous (protein, UniProt Q9Y4Z2 1-214) MTPQPSGAPTVQVTRETERSFPRASEDEVTCPTSAPPSPTRTRGNCAEAEEGGCRGAPRKLRARRGGRSRPKSELALSKQRRSRRKKANDRERNRMHNLNSALDALRGVLPTFPDDAKLTKIETLRFAHNYIWALTQTLRIADHSLYALEPPAPHCGELGSPGGSPGDWGSLYSPVSQAGSLSPAASLEERPGLLGATFSACLSPGSLAFSDFL		binds
